# PubChem BioAssay AID540276 (National Center for Advancing Translational Sciences (NCATS), 2011)
# Out of some 300,000 compounds screened, about 5,400 (1.8%) were called active. Inconclusive results, whose numbers are uncertain, are shown with a selection of clear calls. Calls follow the shape of the full dose curve; tested in HEK293 cells. Potencies of inconclusive entries are doubtful fits and often do not repeat.
# Assay: qHTS for inhibitors of binding or entry into cells for Marburg Virus
# Conditions: Marburg virus pseudotyped entry inhibition, cell reporter; activity change, negative = inhibition: at 37.8 µM (top of the series) unless noted
# % is scaled to controls: 0 for no effect and ±100 for the full control effect; potency is read from the fitted curve at half-maximal effect.
SMILES,Potency,"activity change, negative = inhibition"
CCOc1ccc(CC(=O)Nc2c(C(=O)c3ccccc3)oc3ccc(OC)cc23)cc1OCC,inactive,–
Cn1c(N)c(C(=O)CSc2nnc(NC3CCCCC3)s2)c(=O)n(C)c1=O,inactive,–
Cc1cc(C)c(NC(=O)COC(=O)C23CC4CC(CC(O)(C4)C2)C3)c(Cl)c1,"inconclusive: 22.4 µM [inhibitor, single point]",–
CC(CN1CCN(C)CC1)OC(=O)c1cccc(Cl)c1 (stereo unspecified),inactive,–
COc1ccc(NS(=O)(=O)c2cccc(NC(=O)NC3CCCCC3)c2)cc1,"inconclusive: 35.5 µM [inhibitor, single point]",–
CCNc1nc(NCC)nc(NS(=O)(=O)c2ccc(N)cc2)n1,"inconclusive: 0.316 µM [inhibitor, partial curve, poor fit]",–
O=c1nc2ccccc2c2n1CC(CN1CCN(C(c3ccccc3)c3ccccc3)CC1)N2 (stereo unspecified),"inconclusive: 3.16 µM [inhibitor, single point]",–
Cc1ccccc1/C=N/Nc1nc2ccccc2[nH]1,inactive,–
Cc1nc(Nc2ccccc2)[nH]c(=O)c1CCC(C)C,"inconclusive: 29.1 µM [inhibitor, single point]",–
Cc1oc(-c2ccc(Cl)cc2)nc1CN1CCCN(C(=O)c2ccco2)CC1,"inconclusive: 10 µM [inhibitor, partial curve, poor fit]",–
CN(Cc1ccccc1)C(=O)CSc1nc(-c2ccc(F)cc2)cc(C(F)(F)F)n1,"inconclusive: 6.31 µM [inhibitor, full curve, poor fit]",–
Cc1cccc(NC(=S)NCc2ccc3[nH]c4c(c3c2)CCCC4)c1,"inconclusive: 23.1 µM [inhibitor, single point]",–
Cc1ccc2nc(N(CCCN(C)C)C(=O)c3ccc(S(=O)(=O)N(C)C)cc3)sc2c1,"inconclusive: 29.1 µM [inhibitor, single point]",–
O=C(COC(=O)c1cccnc1Cl)NCc1cccs1,inactive,–
O=C(NCCc1ccccc1F)C1CC(=O)N(c2cccc(C(F)(F)F)c2)C1 (stereo unspecified),"inconclusive: 35.5 µM [activator, single point]",–
CCc1ccc(NC(=O)CCCN2C(=O)C3CC=CCC3C2=O)cc1 (stereo unspecified),–,inconclusive: 0.519% [activator]
Cc1cc(Cl)ccc1OCC(=O)NCCOC(=O)Nc1sc(=S)n(C)c1C,inactive,–
CCCCOC(=O)CCc1nc2ccccc2[nH]1,inactive,–
CCN(CC)CCCn1c(=S)[nH]c2cc(Cl)ccc2c1=O,inactive,–
O=C(CN1C(=O)C(=O)N(Cc2ccccc2)C1=O)Nc1cc(Cl)cc(Cl)c1,"inconclusive: 3.55 µM [inhibitor, full curve, poor fit]",–
Nc1ccc2[nH]ncc2c1,inactive,–
CCc1cc(C(=O)c2ccc(OC)cc2)c(N)s1,"inconclusive: 0.562 µM [inhibitor, full curve, poor fit]",–
Cc1[nH]nc2c1C(c1ccc(F)cc1)C1=C(CC(C)(C)CC1=O)N2 (stereo unspecified),"inconclusive: 23.1 µM [inhibitor, partial curve, poor fit]",–
Cc1cccc(NC(=O)CSc2nnc(CNC(=O)c3ccc(S(=O)(=O)N(C)C)cc3)n2-c2ccc(F)cc2)c1,"inconclusive: 11.2 µM [inhibitor, partial curve, poor fit]",–

SMILES,Potency,"activity change, negative = inhibition"
O=S(=O)(c1ccc(F)cc1)N1CCN(c2nc(-c3ccc(F)cc3)cs2)CC1,"inconclusive: 29.1 µM [inhibitor, single point]",–
O=C(O)c1cccc(Nc2nc(N3CCOCC3)nc(N3CCOCC3)n2)c1,inactive,–
O=C(N/N=C/c1cccc(O)c1)c1csc2ccccc12,"inconclusive: 11.2 µM [activator, partial curve, poor fit]",–
Cc1ccc(NC(=O)/C(Cl)=C\c2ccccc2)cc1,active: 7.94 µM,–
Cc1cc(C(=O)OCc2nc3ccccc3s2)c(C)o1,inactive,–
CC(=O)NCC(c1cccs1)S(=O)(=O)c1ccc(F)cc1 (stereo unspecified),"inconclusive: 3.16 µM [activator, partial curve, poor fit]",–
O=C(/C=C/c1ccccc1Cl)Nc1nc(-c2cccs2)ns1,inactive,–
Cc1ccc(CSCC(=O)N(C)CC(=O)Nc2ccc(Br)cc2C)cc1,"inconclusive: 0.708 µM [inhibitor, partial curve, poor fit]",–
COc1ccc(NC(=O)CN(C)CC(=O)Nc2cccc(C(F)(F)F)c2)cc1,"inconclusive: 1 µM [inhibitor, single point]",–
COc1cc(OC)cc(C(=O)Nc2ccc(C(=O)Nc3ccccc3OC)cc2)c1,"inconclusive: 35.5 µM [inhibitor, single point]",–
CC(=O)N1CCN(c2ccc(NC(=S)NC(=O)COc3ccc(C(C)(C)C)cc3)cc2)CC1,"inconclusive: 12.6 µM [inhibitor, partial curve, poor fit]",–
CCN(Cc1nc(-c2ccc(OC)c(OC)c2)no1)C(=O)c1ccc2c(c1)OCO2,"inconclusive: 35.5 µM [inhibitor, single point]",–
CC(=O)NC(CC(=O)OCC(=O)Nc1cc(S(=O)(=O)N2CCCCC2)ccc1C)c1ccccc1 (stereo unspecified),"inconclusive: 7.94 µM [activator, partial curve]",–
N/C(=N\OC(=O)c1ccc([N+](=O)[O-])cc1Cl)c1ccccn1,"inconclusive: 1.12 µM [inhibitor, full curve, poor fit]",–
C=C(C)COc1ccc(-c2nc(N)ncc2-c2ccc(OC)cc2)c(O)c1,inactive,–
Nc1c(C(=O)NCCN2CCOCC2)c2nc3ccccc3nc2n1-c1ccccc1,inactive,–
CCOc1ccccc1N(CC(=O)NCC1CCCO1)C(=O)CNS(=O)(=O)c1ccccc1 (stereo unspecified),inactive,–
CC1=NN(C(N)=S)C(=O)C1N=Nc1c(C)cc(C)cc1C (stereo unspecified),inactive,–
COc1cc(/C=C2/C(C)=C(C#N)c3nc(N)c(C#N)c(C)c32)ccc1OCC(=O)O,"inconclusive: 5.62 µM [inhibitor, single point]",–
Clc1cc(Cl)c2nc(N3CCCC3)sc2c1,inactive,–
Cc1ccc(S(=O)(=O)N2CCN(C(=O)C3CCCC3)CC2)cc1C,inactive,–
O=C(Oc1ccc2c(c1)OCC2=O)c1ccccc1,inactive,–
C[N+]1(CCCOC(=O)C2(c3ccccc3)CCCC2)CCOCC1,inactive,–
CN1C=CC=C/C1=C1\SC(=S)N(CC(=O)O)C1=O,"inconclusive: 2.82 µM [activator, full curve, poor fit]",–

SMILES,Potency,"activity change, negative = inhibition"
C/C(=N\NC(=O)CC(C)C)c1ccc(Cl)c(Cl)c1,"inconclusive: 28.2 µM [inhibitor, single point]",–
CCOC(=O)c1cc(NC(=O)c2ccc(C)cc2)c(=O)oc1-c1ccccc1,inactive,–
O=C(NC1CCCCC1)C(c1ccc2ncccc2c1)N(Cc1ccc2c(c1)OCO2)C(=O)c1ccc2c(c1)OCCO2 (stereo unspecified),"inconclusive: 6.31 µM [activator, single point]",–
COc1ccc(C(=O)Nc2cccc3nc(C)ccc23)c(OC)c1,"inconclusive: 7.08 µM [inhibitor, partial curve]",–
O=[N+]([O-])c1cccc(/C=N/Nc2nnc(-c3ccccc3)c(-c3ccccc3)n2)c1,"inconclusive: 3.55 µM [activator, full curve, poor fit]",–
Cc1ccc(NC(=S)NC(=O)C2CCC2)cc1C,inactive,–
O=C(COC(=O)c1ccc(O)cc1)Nc1ccc2c(c1)OCCO2,"inconclusive: 35.5 µM [inhibitor, single point]",–
NNC(=O)c1cc(O)c(O)c(O)c1,"inconclusive: 12.6 µM [inhibitor, single point]",–
C=CCc1cc(Cl)ccc1OCCCNC(C)CC (stereo unspecified),active: 2.91 µM,–
c1ccc(N2CCN(c3nnc(Cc4cccnc4)c4ccccc34)CC2)nc1,inactive,–
C=C1SC(Nc2c(C)cc(C)cc2C)=NC12CCCCC2,active: 3.55 µM,–
O=C(NCCc1nc2ccccc2[nH]1)c1cc([N+](=O)[O-])cc([N+](=O)[O-])c1,inactive,–
COc1ccc2nc(-c3ccccc3)nc(SCC(=O)NCC3CCCO3)c2c1 (stereo unspecified),"inconclusive: 35.5 µM [inhibitor, single point]",–
CN(C)S(=O)(=O)c1ccc(C(=O)NCCSc2c(-c3ccc(Cl)cc3)[nH]c3ccccc23)cc1,"inconclusive: 15.8 µM [inhibitor, partial curve, poor fit]",–
NC(=O)c1ccccc1OCC(=O)N1CCCc2ccccc21,"inconclusive: 3.55 µM [activator, partial curve, poor fit]",–
COc1ccc(C(=O)O/N=C(\N)c2ccccc2)cc1,"inconclusive: 10 µM [inhibitor, partial curve, poor fit]",–
COc1ccc(C(CNC(=O)c2cccc(S(=O)(=O)N3CCCc4ccccc43)c2)N(C)C)cc1 (stereo unspecified),"inconclusive: 0.126 µM [inhibitor, full curve, poor fit]",–
CCN(CC)c1ccc(Nc2nc(Cl)ncc2Br)cc1,"inconclusive: 8.91 µM [inhibitor, partial curve, poor fit]",–
O=C(CSc1nnnn1-c1ccccc1)Nc1ccc(Cl)cn1,inactive,–
O=C(/C=C/c1c(F)cccc1Cl)N1CCc2ccccc2C1,"inconclusive: 15.8 µM [inhibitor, single point]",–
Cc1ccc(/C=N/NC(=O)C(NC(=O)c2ccccc2)c2n[nH]c(=O)c3ccccc23)cc1 (stereo unspecified),"inconclusive: 35.5 µM [inhibitor, single point]",–
CCC1(c2ccc(F)cc2)NC(=O)N(CC(=O)N2CCOCC2)C1=O (stereo unspecified),"inconclusive: 1.78 µM [activator, single point]",–
CCn1c(SCC(=O)c2ccc(F)cc2)nnc1-c1ccoc1C,inactive,–

# Single values from the results shown.
# In Potency, CCC1(c2ccc(F)cc2)NC(=O)N(CC(=O)N2CCOCC2)C1=O (stereo unspecified) reads inconclusive: 1.78 µM [activator, single point]
# In Potency, COc1ccc(C(=O)O/N=C(\N)c2ccccc2)cc1 reads inconclusive: 10 µM [inhibitor, partial curve, poor fit]
# In Potency, Cc1ccc(NC(=S)NC(=O)C2CCC2)cc1C reads inactive
